Reference: article PMC12026874 (Gels, 2025)

Experiment: peptide made by a vendor
Conditions: whole synthesis, HPLC (LC-MS purity chromatograms in Supplementary Materials)

Substance | final HPLC purity [%]
PEPTIDE1{[ac].Q.N.G.E.Y.G.C.V.A.D.T.P.N.L.L.Y.A.F.K.I.L.D.Y.R.Q}$$$$V2.0 | 88.81
PEPTIDE1{[ac].E.M.L.W.L.S.D.G.S.M.G.F.A.E.D.T.D.A.A.F.L.P.G.D.T.I.F.G.R.I}$$$$V2.0 | 87.68
PEPTIDE1{[ac].R.A.G.Q.P.I.T.A.F.L.V.R.D}$$$$V2.0 | 91.20
PEPTIDE1{[ac].S.R.P.S.D.P.A.S.A.V.A.G.E.D.Y.T.G.I.S.R.N}$$$$V2.0 | 85.74

HELM strings list residues between dots; [ac] is acetyl, [am] amide, other brackets name non-standard units.
